The list shows a part of the results.
What was measured:
Assay in all cases: glycan array binding signal (z-score within array); higher = stronger binding
Conditions in all cases: glycan notation: IUPAC condensed, linker removed
Fuc(a1-3)GlcNAc = molecular target: Fuc(a1-3)GlcNAc
Procedure, shortened: (§1)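 Negative Z-scores can be read as non-binding. The Z-score is calculated within each array and then averaged across arrays of one protein sequence at different concentrations or buffers and across linkers. Arrays, 3228 in all, were curated from the Consortium for Functional Glycomics database and kept only where the protein sequence was available.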

[1] = molecular target: Fuc(a1-3)[Gal(b1-4)]Glc6S
Procedure, shortened: as §1

[2] = molecular target: Fuc(a1-3)[Gal(b1-4)]GlcNAc
Procedure, shortened: as §1

[3] = molecular target: Fuc(a1-3)[Gal(b1-4)]GlcNAc(b1-2)Man
Procedure, shortened: as §1

[4] = molecular target: Fuc(a1-3)[Gal(b1-4)]GlcNAc(b1-2)Man(a1-3)[Fuc(a1-3)[Gal(b1-4)]GlcNAc(b1-2)Man(a1-6)]Man(b1-4)GlcNAc(b1-4)GlcNAc
Procedure, shortened: as §1

[5] = molecular target: Fuc(a1-3)[Gal(b1-4)]GlcNAc(b1-2)Man(a1-3)[Fuc(a1-3)[Gal(b1-4)]GlcNAc(b1-2)Man(a1-6)]Man(b1-4)GlcNAc(b1-4)[Fuc(a1-6)]GlcNAc
Procedure, shortened: as §1

[6] = molecular target: Fuc(a1-3)[Gal(b1-4)]GlcNAc(b1-3)Gal(b1-3)[Fuc(a1-4)]GlcNAc
Procedure, shortened: as §1

[7] = molecular target: Fuc(a1-3)[Gal(b1-4)]GlcNAc(b1-3)Gal(b1-4)[Fuc(a1-3)]GlcNAc
Procedure, shortened: as §1

[8] = molecular target: Fuc(a1-3)[Gal(b1-4)]GlcNAc(b1-3)Gal(b1-4)[Fuc(a1-3)]GlcNAc(b1-3)Gal(b1-4)[Fuc(a1-3)]GlcNAc
Procedure, shortened: as §1

[9] = molecular target: Fuc(a1-3)[Gal(b1-4)]GlcNAc(b1-3)GalNAc
Procedure, shortened: as §1

[10] = molecular target: Fuc(a1-3)[Gal(b1-4)]GlcNAc(b1-6)GalNAc
Procedure, shortened: as §1

[11] = molecular target: Fuc(a1-3)[Gal(b1-4)]GlcNAc(b1-6)[Gal(b1-3)GlcNAc(b1-3)]Gal(b1-4)Glc
Procedure, shortened: as §1

[12] = molecular target: Fuc(a1-3)[Gal(b1-4)]GlcNAc6S
Procedure, shortened: as §1

[13] = molecular target: Fuc(a1-3)[Gal3S(b1-4)]Glc
Procedure, shortened: as §1

[14] = molecular target: Fuc(a1-3)[Gal3S(b1-4)]GlcNAc
Procedure, shortened: as §1

[15] = molecular target: Fuc(a1-3)[Gal3S(b1-4)]GlcNAc6S
Procedure, shortened: as §1

[16] = molecular target: Fuc(a1-3)[GalNAc(b1-4)]GlcNAc
Procedure, shortened: as §1

[17] = molecular target: Fuc(a1-3)[GalNAc(b1-4)]GlcNAc6S
Procedure, shortened: as §1

Fuc(a1-4)GlcNAc = molecular target: Fuc(a1-4)GlcNAc
Procedure, shortened: as §1

Fuc(b1-3)GlcNAc = molecular target: Fuc(b1-3)GlcNAc
Procedure, shortened: as §1

Gal(a1-2)Gal = molecular target: Gal(a1-2)Gal
Procedure, shortened: as §1

Gal(a1-3)Gal = molecular target: Gal(a1-3)Gal
Procedure, shortened: as §1

Gal(a1-3)Gal(b1-3)GlcNAc = molecular target: Gal(a1-3)Gal(b1-3)GlcNAc
Procedure, shortened: as §1

[18] = molecular target: Gal(a1-3)Gal(b1-3)GlcNAc(b1-2)Man
Procedure, shortened: as §1

[19] = molecular target: Gal(a1-3)Gal(b1-3)GlcNAc(b1-2)Man(a1-3)[Gal(a1-3)Gal(b1-3)GlcNAc(b1-2)Man(a1-6)]Man(b1-4)GlcNAc(b1-4)GlcNAc
Procedure, shortened: as §1

[20] = molecular target: Gal(a1-3)Gal(b1-3)GlcNAc(b1-3)GalNAc
Procedure, shortened: as §1

[21] = molecular target: Gal(a1-3)Gal(b1-3)GlcNAc(b1-6)GalNAc
Procedure, shortened: as §1

[22] = molecular target: Gal(a1-3)Gal(b1-3)[Fuc(a1-4)]GlcNAc(b1-2)Man(a1-3)[Gal(a1-3)Gal(b1-3)[Fuc(a1-4)]GlcNAc(b1-2)Man(a1-6)]Man(b1-4)GlcNAc(b1-4)GlcNAc
Procedure, shortened: as §1

Gal(a1-3)Gal(b1-4)Glc = molecular target: Gal(a1-3)Gal(b1-4)Glc
Procedure, shortened: as §1

Gal(a1-3)Gal(b1-4)GlcNAc = molecular target: Gal(a1-3)Gal(b1-4)GlcNAc
Procedure, shortened: as §1

[23] = molecular target: Gal(a1-3)Gal(b1-4)GlcNAc(b1-2)Man
Procedure, shortened: as §1

[24] = molecular target: Gal(a1-3)Gal(b1-4)GlcNAc(b1-2)Man(a1-3)[Gal(a1-3)Gal(b1-4)GlcNAc(b1-2)Man(a1-6)]Man(b1-4)GlcNAc(b1-4)GlcNAc
Procedure, shortened: as §1

[25] = molecular target: Gal(a1-3)Gal(b1-4)GlcNAc(b1-3)GalNAc
Procedure, shortened: as §1

[26] = molecular target: Gal(a1-3)Gal(b1-4)GlcNAc(b1-6)GalNAc
Procedure, shortened: as §1

[27] = molecular target: Gal(a1-3)Gal(b1-4)[Fuc(a1-3)]GlcNAc
Procedure, shortened: as §1

[28] = molecular target: Gal(a1-3)Gal(b1-4)[Fuc(a1-3)]GlcNAc(b1-2)Man(a1-3)[Gal(a1-3)Gal(b1-4)[Fuc(a1-3)]GlcNAc(b1-2)Man(a1-6)]Man(b1-4)GlcNAc(b1-4)GlcNAc
Procedure, shortened: as §1

Gal(a1-3)GalNAc = molecular target: Gal(a1-3)GalNAc
Procedure, shortened: as §1

[29] = molecular target: Gal(a1-3)[Gal(a1-4)]Gal(b1-4)GlcNAc
Procedure, shortened: as §1

[30] = molecular target: Gal(a1-4)Gal(b1-3)GlcNAc(b1-2)Man(a1-3)[Gal(a1-4)Gal(b1-3)GlcNAc(b1-2)Man(a1-6)]Man(b1-4)GlcNAc(b1-4)GlcNAc
Procedure, shortened: as §1

Gal(a1-4)Gal(b1-4)Glc = molecular target: Gal(a1-4)Gal(b1-4)Glc
Procedure, shortened: as §1

Gal(a1-4)Gal(b1-4)GlcNAc = molecular target: Gal(a1-4)Gal(b1-4)GlcNAc
Procedure, shortened: as §1

[31] = molecular target: Gal(a1-4)Gal(b1-4)GlcNAc(b1-2)Man(a1-3)[Gal(a1-4)Gal(b1-4)GlcNAc(b1-2)Man(a1-6)]Man(b1-4)GlcNAc(b1-4)GlcNAc
Procedure, shortened: as §1

[32] = molecular target: Gal(a1-4)Gal(b1-4)GlcNAc(b1-3)Gal(b1-4)Glc
Procedure, shortened: as §1

Gal(a1-4)GlcNAc = molecular target: Gal(a1-4)GlcNAc
Procedure, shortened: as §1

Gal(a1-6)Glc = molecular target: Gal(a1-6)Glc
Procedure, shortened: as §1

B1: EUL D1A second (Oryza sativa) (protein)
chain: GAATACTIGGVPVHTVRVFSAAGEDYCLTVRNGTACLAPKNPRDDYQHWIKDMRHSNKIRDEEGYPAFALVNKVTGEAIKHSTGQGHPVKLVPYNPEYQDESVLWTESKDVGKGFRCIRMVNNIYLNFDAFHGDKDHGGIHDGTEIVLWKWCEGDNQRWKILPWILEQKLISEEDLNSAVDHHHHHH
glycan array binding signal (z-score) (Fuc(a1-3)GlcNAc): -0.469
glycan array binding signal (z-score) [1]: -0.136
glycan array binding signal (z-score) [2]: -0.772
glycan array binding signal (z-score) [3]: 0.112
glycan array binding signal (z-score) [4]: -0.382
glycan array binding signal (z-score) [5]: 2.4
glycan array binding signal (z-score) [6]: -0.819
glycan array binding signal (z-score) [7]: -0.106
glycan array binding signal (z-score) [8]: -0.846
glycan array binding signal (z-score) [9]: 0.566
glycan array binding signal (z-score) [10]: -0.945
glycan array binding signal (z-score) [11]: -0.669
glycan array binding signal (z-score) [12]: -0.105
glycan array binding signal (z-score) [13]: -1.53
glycan array binding signal (z-score) [14]: 0.625
glycan array binding signal (z-score) [15]: -1.36
glycan array binding signal (z-score) [16]: -0.036
glycan array binding signal (z-score) [17]: -0.662
glycan array binding signal (z-score) (Fuc(a1-4)GlcNAc): -0.27
glycan array binding signal (z-score) (Fuc(b1-3)GlcNAc): -0.085
glycan array binding signal (z-score) (Gal(a1-2)Gal): -1.3
glycan array binding signal (z-score) (Gal(a1-3)Gal): -0.873
glycan array binding signal (z-score) (Gal(a1-3)Gal(b1-3)GlcNAc): -0.139
glycan array binding signal (z-score) [18]: 0.338
glycan array binding signal (z-score) [19]: 1.69
glycan array binding signal (z-score) [20]: -1.62
glycan array binding signal (z-score) [21]: -0.169
glycan array binding signal (z-score) [22]: 0.542
glycan array binding signal (z-score) (Gal(a1-3)Gal(b1-4)Glc): -0.063
glycan array binding signal (z-score) (Gal(a1-3)Gal(b1-4)GlcNAc): -1.66
glycan array binding signal (z-score) [23]: -0.016
glycan array binding signal (z-score) [24]: 0.201
glycan array binding signal (z-score) [25]: -0.802
glycan array binding signal (z-score) [26]: -0.557
glycan array binding signal (z-score) [27]: -0.74
glycan array binding signal (z-score) [28]: 0.897
glycan array binding signal (z-score) (Gal(a1-3)GalNAc): -1.42
glycan array binding signal (z-score) [29]: 0.807
glycan array binding signal (z-score) [30]: -0.584
glycan array binding signal (z-score) (Gal(a1-4)Gal(b1-4)Glc): -1.31
glycan array binding signal (z-score) (Gal(a1-4)Gal(b1-4)GlcNAc): 0.105
glycan array binding signal (z-score) [31]: -0.008
glycan array binding signal (z-score) [32]: -1.1
glycan array binding signal (z-score) (Gal(a1-4)GlcNAc): -1.01
glycan array binding signal (z-score) (Gal(a1-6)Glc): -0.631

From the supplement of paper PMC8728848
